From patent US20210324061A1 (ARGENX BVBA, published 2021)
Positions count from the first letter of the chain named. Numbers in names are those of the source. Results are given in words; binding and its absence hold for the method and conditions named. Some entries that bind do so weakly or less than the wild type.

Protein sequences, listed by entry. Tags and fused reporters are not part of them. Lines headed by an entry give the natural chain unless they say otherwise; changes in a name come on top.
UniProt Q14392: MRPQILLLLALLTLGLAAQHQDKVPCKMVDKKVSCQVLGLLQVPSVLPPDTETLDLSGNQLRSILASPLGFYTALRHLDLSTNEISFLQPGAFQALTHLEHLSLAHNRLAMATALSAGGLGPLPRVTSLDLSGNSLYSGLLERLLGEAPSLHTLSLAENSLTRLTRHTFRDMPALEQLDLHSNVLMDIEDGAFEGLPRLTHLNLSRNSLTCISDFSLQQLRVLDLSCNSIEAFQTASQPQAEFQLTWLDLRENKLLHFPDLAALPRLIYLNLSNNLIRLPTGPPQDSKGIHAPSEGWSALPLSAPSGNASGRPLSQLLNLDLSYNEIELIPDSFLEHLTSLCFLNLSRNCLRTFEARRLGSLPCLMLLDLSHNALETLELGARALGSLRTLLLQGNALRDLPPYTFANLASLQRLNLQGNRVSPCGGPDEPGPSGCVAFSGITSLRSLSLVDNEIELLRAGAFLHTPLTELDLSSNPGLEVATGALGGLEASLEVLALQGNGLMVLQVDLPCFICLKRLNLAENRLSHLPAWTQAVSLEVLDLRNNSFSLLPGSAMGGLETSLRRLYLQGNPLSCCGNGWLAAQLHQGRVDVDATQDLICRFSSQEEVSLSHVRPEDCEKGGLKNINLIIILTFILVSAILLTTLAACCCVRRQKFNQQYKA

B1: 39B6-A IgG4 S228P (antibody, V domains shown)
VH: QVQLVQPGAEVRKPGASVKVSCKASGYRFTSYYIDWVRQAPGQGLEWMGRIDPEDAGTKYAQKFQGRVTMTADTSTSTVYVELSSLRSEDTAVYYCARNEWETVVVGDLMYEYEYWGQGTLVTVSS
VL: DIQMTQSPSSLSASVGDRVTITCQASQSISSYLAWYQQKPGQAPKILIYGASRLKTGVPSRFSGSGSGTSFTLTISSLEPEDAATYYCQQYASVPVTFGQGTKVEIKR
notes: 39B6 with G55A in HCDR2, in the human IgG4 S228P backbone; also called 39B6-ANE
B2: 39B6-ANK IgG4 S228P (antibody, V domains shown)
VH: B1 VH with E100K
VL: B1 VL
notes: Variant of 39B6-A in IgG4 S228P format; Positions are Kabat-type
B3: 39B6-ANR IgG4 S228P (antibody, V domains shown)
VH: B1 VH with E100R
VL: B1 VL
notes: as for B2
B4: 39B6-AVE IgG4 S228P (antibody, V domains shown)
VH: B1 VH with N99V
VL: B1 VL
notes: as for B2
B5: 39B6-AYE (ARGX-115), IgG4 S228P (antibody, V domains shown)
VH: B1 VH with N99Y
VL: B1 VL
B6: 39B6 IgG1-N297Q (antibody, V domains shown)
VH: B1 VH with A56G
VL: DIQMTQSPSSLSASVGDRVTITCQASQSISSYLAWYQQKPGQAPKILIYGASRLKTGVPSRFSGSGSGTSFTLTISSLEPEDAATYYCQQYASVPVTFGQGTKVEIK
notes: Effector-deficient format hIgG1 N297Q; The second row may be the IgG4 S228P form; Both rows are written here as printed
B7: 39B6 human IgG1 (antibody, V domains shown)
VH: B1 VH with A56G
VL: B6 VL
notes: Full human IgG1, made in HEK 293E cells
B8: 39B10 human IgG1 (antibody, V domains shown)
VH: B1 VH with Q1E, P7S, V11L, R12K, D55E, A56G, V79A, V81M
VL: B6 VL with V15L, K45N, S70D, S77G, P80A, A83F
notes: as for B7
B9: 39A5 human IgG1 (antibody, V domains shown)
VH: QVQLVQPGAELRNPGASVKVSCKASGYRFTSYYIDWVRQAPGQGLEWMGRIDPEDGGTKYAQKFQGRVTFTRDTSTSTVYMELSSLRSEDTAVYYCARNEWETVVVGDLMYEYEYWGQGTLVT
VL: B6 VL with V15L, I46L, S70D, E79Q
notes: as for B7
B10: 38F2 human IgG1 (antibody, V domains shown)
VH: B1 VH with V11L, R12K, M70F, M110T
VL: DIQMTQSPSSLSASVGDRVTITCQASQSISSYLAWYQQKPGKAPNLLIYGASRLKTEVPSRFSGSGSGTDFTLISGLEPEDAGTYYCQQYASVPVTFGQGTKVEIK
notes: as for B7
B11: 39A12 human IgG1 (antibody, V domains shown)
VH: B1 VH with Q1E, R12K, D55E, A56G, M70F, M110T
VL: B6 VL with S70D, E79Q, P80A, A83F
notes: Full human IgG1, made in HEK 293E cells; also called 39A12_T

Legend:
[1] = target: human GARP-TGF-β1 complex (recombinant complex of human GARP and latent human TGF-β1) (human) (UniProt Q14392); assay: SPR relative binding activity of samples stored at 37°C, % of the reference
[2] = target: human GARP-TGF-β1 complex (recombinant complex of human GARP and latent human TGF-β1) (human) (UniProt Q14392); assay: SPR (Biacore) target binding activity on coated human GARP-TGF-β complex after 1 h of heating, % of the 5°C reference
[3] = target: human GARP-TGF-β1 complex (recombinant complex of human GARP and latent human TGF-β1) (human) (UniProt Q14392); assay: SPR (Biacore) target binding activity on coated human GARP-TGF-β complex after 96 h of rotation, % of the reference
[4] = target: human GARP-TGF-β1 complex (recombinant complex of human GARP and latent human TGF-β1) (human) (UniProt Q14392); assay: SPR (Biacore) target binding activity on coated human GARP-TGF-β complex after 10 freeze-thaw cycles, % of the reference
[5] = target: in vitro-formed complex of recombinant human GARP and recombinant latent TGF-β (C33S) (human) (UniProt Q14392); assay: ELISA (legend of FIG. 19)
[6] = target: human GARP-TGF-β1 complex (recombinant complex of human GARP and latent human TGF-β1) (human) (UniProt Q14392); assay: conclusion of Example 2 (SPR)
[7] = target: in vitro-formed complex of recombinant human GARP and recombinant latent TGF-β (C33S) (human) (UniProt Q14392); assay: ELISA: ARGX-115 coated, GARP then latent TGF-β (C33S)-3×strep-tag added, streptavidin-HRP
[8] = target: in vitro-formed complex of recombinant human GARP and recombinant latent TGF-β (C33S) (human) (UniProt Q14392); assay: ELISA: GARP coated, latent TGF-β (C33S) captured, antibody at 1 µg/mL detected with HRP anti-human IgG
[9] = target: in vitro-formed complex of recombinant human GARP and recombinant latent TGF-β (C33S) (human) (UniProt Q14392); assay: ELISA in two orientations: GARP coated, latent TGF-β (C33S) captured, antibody detected with anti-human IgG-HRP; or antibody coated, GARP then latent TGF-β (C33S)-3xstrep-tag added, detected with streptavidin-HRP
[10] = target: human GARP-TGF-β1 complex (recombinant complex of human GARP and latent human TGF-β1) (human) (UniProt Q14392); assay: SPR (Biacore) target binding activity on the GARP-TGF-β complex, % of the -20°C reference, storage in PBS or PBSTw
[11] = target: human GARP-TGF-β1 complex (recombinant complex of human GARP and latent human TGF-β1) (human) (UniProt Q14392); assay: SPR, IgG1 on human GARP-TGF-β1 complex

Binder | binding [1] | binding [2] | binding [11] | further results
B1 | binds |  |  | 
B2 | binds | binds |  | 
B3 | binds | binds |  | 
B4 | binds | binds |  | binding [3]: binds; binding [4]: binds
B5 | binds | binds |  | binding [5]: binds; binding [6]: binds; binding [7]: binds; binding [8]: binds; binding [3]: binds; binding [4]: binds; binding [9]: binds
B6 |  |  |  | binding [10]: binds
B7 |  |  | binds | 
B8 |  |  | binds | 
B9 |  |  | binds | 
B10 |  |  | binds | 
B11 |  |  | binds | 
